Test results as given in publication doi:10.1101/2023.09.24.559210.

Amino acid sequences for entries named in this document (tags omitted). A change or cut given only in a name is not applied to a line headed by its entry.
UniProt Q15223: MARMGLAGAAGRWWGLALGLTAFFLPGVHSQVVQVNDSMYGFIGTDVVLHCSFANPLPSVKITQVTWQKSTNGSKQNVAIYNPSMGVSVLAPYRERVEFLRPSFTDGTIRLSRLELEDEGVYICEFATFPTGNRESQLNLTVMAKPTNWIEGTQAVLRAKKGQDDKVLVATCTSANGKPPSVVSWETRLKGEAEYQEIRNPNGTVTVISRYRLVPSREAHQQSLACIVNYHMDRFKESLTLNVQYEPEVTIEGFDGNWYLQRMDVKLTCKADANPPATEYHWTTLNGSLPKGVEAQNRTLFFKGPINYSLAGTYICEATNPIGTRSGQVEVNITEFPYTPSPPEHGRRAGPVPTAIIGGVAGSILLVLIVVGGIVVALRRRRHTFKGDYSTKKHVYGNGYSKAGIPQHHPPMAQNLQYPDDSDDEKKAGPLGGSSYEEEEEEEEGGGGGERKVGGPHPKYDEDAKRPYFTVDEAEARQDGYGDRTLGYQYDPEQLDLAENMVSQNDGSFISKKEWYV
UniProt Q9Y624: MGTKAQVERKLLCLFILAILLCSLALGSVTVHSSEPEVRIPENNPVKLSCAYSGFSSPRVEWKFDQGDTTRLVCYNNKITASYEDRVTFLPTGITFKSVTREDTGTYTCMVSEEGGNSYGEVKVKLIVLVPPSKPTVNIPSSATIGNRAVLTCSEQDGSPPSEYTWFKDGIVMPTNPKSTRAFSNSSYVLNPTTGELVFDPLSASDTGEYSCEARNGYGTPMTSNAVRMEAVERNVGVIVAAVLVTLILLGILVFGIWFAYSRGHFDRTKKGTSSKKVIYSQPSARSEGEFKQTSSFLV

Columns and labels:
[1] = target: nectin-1 C-terminal domain of the tethered-ligand fusion construct (UniProt Q15223); assay: single-molecule magnetic tweezers, force-jump
[2] = target: JAM-A C-terminal domain of the tethered-ligand fusion constructs (UniProt Q9Y624); assay: single-molecule magnetic tweezers, force-jump

B1: afadin PDZ domain of the tethered-ligand fusion constructs (domain or fragment, UniProt P55196 1007-1093)
chain: IITVTLKKQNGMGLSIVAAKGAGQDKLGIYVKSVVKGGAADVDGRLAAGDQLLSVDGRSLVGLSQERAAELMTRTSSVVTLEVAKQG
With B1 the binding [1] was “binds” and the binding [2] was “binds”.

No constants are given. Whether binding was seen depends on the method and setting. Binding can be weak; no strength is given. Sequences can lack the tags named with a protein.
